{"source": "PubChem BioAssay AID504808 (Drosophila RNAi Screening Center, 2011)", "purpose": "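Chromatin factors that keep E2F targets switched off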 (primary screen)", "cell system": "Drosophila S2 cells", "reagent": "long dsRNA against Drosophila genes", "detection": "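Firefly luciferase driven by E2F sites, normalised to Renilla luciferase on the same minimal promoter, measured by plate reader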", "reading the numbers": "E2F firefly: higher = more E2F reporter activity; Renilla normaliser: higher = more normaliser reporter signal", "call rule": "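a knock-down counted as active when the firefly/Renilla E2F signal rose above 50%, a threshold chosen arbitrarily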", "note": "The screen tested about 21,000 reagents; below is a random part of those that have a named target and a result. Of all reagents, 18 (0.084%) got an active call. 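Raw counts without plate normalisation, one of two replicates; the ratio scores behind the calls were not deposited.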 Unmarked entries are inactive. Reagents against one gene are numbered here. Not given: the amount of reagent, the time to read-out."}
{"gene knocked down": "NT5E-2 (GeneID 246458)", "reagent": 1, "E2F firefly, rep 1": 78849, "Renilla normaliser, rep 1": 2901}
{"gene knocked down": "Leash (GeneID 41320)", "reagent": 1, "E2F firefly, rep 1": 1.40e5, "Renilla normaliser, rep 1": 5958}
{"gene knocked down": "Tsp42Ef (GeneID 35615)", "reagent": 1, "E2F firefly, rep 1": 1.43e5, "Renilla normaliser, rep 1": 4502}
{"gene knocked down": "Flacc (GeneID 32886)", "reagent": 1, "E2F firefly, rep 1": 1.43e5, "Renilla normaliser, rep 1": 5956}
{"gene knocked down": "ND-B17.2 (GeneID 33443)", "reagent": 1, "E2F firefly, rep 1": 1.65e5, "Renilla normaliser, rep 1": 5362}
{"gene knocked down": "Nost (GeneID 8673992)", "reagent": 1, "E2F firefly, rep 1": 38413, "Renilla normaliser, rep 1": 3027}
{"gene knocked down": "Nost (GeneID 8673992)", "reagent": 2, "E2F firefly, rep 1": 47018, "Renilla normaliser, rep 1": 3633}
{"gene knocked down": "clt (GeneID 117300)", "reagent": 1, "E2F firefly, rep 1": 1.09e5, "Renilla normaliser, rep 1": 5022}
{"gene knocked down": "Ir8a (GeneID 31867)", "reagent": 1, "E2F firefly, rep 1": 1.35e5, "Renilla normaliser, rep 1": 5654}
{"gene knocked down": "Ir8a (GeneID 31867)", "reagent": 2, "E2F firefly, rep 1": 1.20e5, "Renilla normaliser, rep 1": 5505}

Laid out differently: results already given
{"gene knocked down":"Ir8a (GeneID 31867)","reagent":1,"E2F firefly, rep 1":1.35e5,"Renilla normaliser, rep 1":5654}
{"gene knocked down":"Ir8a (GeneID 31867)","reagent":2,"E2F firefly, rep 1":1.20e5,"Renilla normaliser, rep 1":5505}

The results go on.
{"gene knocked down": "Rcd7 (GeneID 40126)", "reagent": 1, "E2F firefly, rep 1": 1.18e5, "Renilla normaliser, rep 1": 6508}
{"gene knocked down": "CG14315 (GeneID 42164)", "reagent": 1, "E2F firefly, rep 1": 1.62e5, "Renilla normaliser, rep 1": 8112}
{"gene knocked down": "CG34135 (GeneID 4379850)", "reagent": 1, "E2F firefly, rep 1": 53973, "Renilla normaliser, rep 1": 4228}
{"gene knocked down": "fne (GeneID 32245)", "reagent": 1, "E2F firefly, rep 1": 82243, "Renilla normaliser, rep 1": 4996}
{"gene knocked down": "Irbp18 (GeneID 39243)", "reagent": 1, "E2F firefly, rep 1": 1.19e5, "Renilla normaliser, rep 1": 6329}
{"gene knocked down": "Agpat2 (GeneID 34176)", "reagent": 1, "E2F firefly, rep 1": 70105, "Renilla normaliser, rep 1": 3096}
{"gene knocked down": "MAN1 (GeneID 37838)", "reagent": 1, "E2F firefly, rep 1": 74899, "Renilla normaliser, rep 1": 3765}
{"gene knocked down": "scb (GeneID 36692)", "reagent": 1, "E2F firefly, rep 1": 1.30e5, "Renilla normaliser, rep 1": 5705}
{"gene knocked down": "scb (GeneID 36692)", "reagent": 2, "E2F firefly, rep 1": 99723, "Renilla normaliser, rep 1": 4213}
